According to PMC9756784 (Journal of Mass Spectrometry and Advances in the Clinical …, 2022):

Conditions: human

Length of time for which stability is assumed: 24h RT
SMILES: O=C(O)c1cn(C2CC2)c2cc(N3CCNCC3)c(F)cc2c1=O [Ciprofloxacin, ciprofloxacin]
